{"source": "patent US20250320401A1", "about": "“CORROSION INHIBITOR AND RELATED METHODS OF INHIBITING THE CORROSION OF METAL SURFACES” (Schlumberger Technology Corporation, priority 2024, published 2025)", "assay": "Hydrolysis of the 3-HPA-based precursors in 13% HCl solution (1H NMR)", "type": "physicochemical", "conditions": "room temperature", "note": "Some results were stated once for a whole list of compounds, not compound by compound.", "data": [{"smiles": "CCOC(CCO)OCC", "note": "[3,3-diethoxy-1-propanol]", "values": [{"measurement": "time to complete hydrolysis", "result": "< 3", "unit": "min"}]}]}
